Laboratory results as given in PMC6193743, “Phosphoglucomutase 1 inhibits hepatocellular carcinoma progression by regulating glucose trafficking”.
No constants are given. Whether binding was seen depends on the method and setting. Binding seen in cells or lysates may run through a third protein. Some results given as binding are weak or reduced against the parent protein; the word gives no strength.

Chains of the proteins cited; added tags and fusions are not shown.
UniProt Q9P0K8: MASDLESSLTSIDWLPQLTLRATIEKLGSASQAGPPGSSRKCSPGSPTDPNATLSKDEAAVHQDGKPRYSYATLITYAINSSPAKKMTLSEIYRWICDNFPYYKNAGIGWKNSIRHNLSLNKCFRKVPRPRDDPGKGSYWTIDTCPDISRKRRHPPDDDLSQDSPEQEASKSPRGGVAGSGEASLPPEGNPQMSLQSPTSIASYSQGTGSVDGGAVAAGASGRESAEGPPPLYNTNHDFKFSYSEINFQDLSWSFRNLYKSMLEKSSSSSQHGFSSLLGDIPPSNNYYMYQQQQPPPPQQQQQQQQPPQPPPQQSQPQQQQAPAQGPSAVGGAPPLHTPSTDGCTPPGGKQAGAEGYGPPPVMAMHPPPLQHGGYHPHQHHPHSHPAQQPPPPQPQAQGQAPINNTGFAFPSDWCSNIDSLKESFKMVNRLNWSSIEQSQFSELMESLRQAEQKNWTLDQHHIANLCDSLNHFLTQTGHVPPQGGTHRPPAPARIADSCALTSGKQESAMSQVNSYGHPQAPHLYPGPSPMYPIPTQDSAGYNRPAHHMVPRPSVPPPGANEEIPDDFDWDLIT
UniProt P62633: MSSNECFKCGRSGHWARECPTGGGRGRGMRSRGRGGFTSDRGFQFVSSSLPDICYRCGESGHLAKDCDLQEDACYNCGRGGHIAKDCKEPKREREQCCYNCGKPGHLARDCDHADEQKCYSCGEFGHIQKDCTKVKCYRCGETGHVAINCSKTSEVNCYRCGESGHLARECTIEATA

Target: Flag-FOXJ2 (forkhead box protein J2) (human) (UniProt Q9P0K8)
Test: co-IP; anti-Flag immunoprecipitation from SK-Hep1 cells expressing EV or Flag-FOXJ2; immunoblotting with indicated antibodies

binding: binds
Substance: cellular nucleic acid-binding protein (CNBP) (from UniProt P62633 1-177)
